Article PMC8355374
These are yes or no findings as the source states them, for the method shown. In cells and extracts the contact can be indirect. Some entries that bind do so weakly or less than the wild type.

Sequences of proteins named here, by UniProt entry; tags and fusion partners are left off. Residues count along the entry.
UniProt P16671: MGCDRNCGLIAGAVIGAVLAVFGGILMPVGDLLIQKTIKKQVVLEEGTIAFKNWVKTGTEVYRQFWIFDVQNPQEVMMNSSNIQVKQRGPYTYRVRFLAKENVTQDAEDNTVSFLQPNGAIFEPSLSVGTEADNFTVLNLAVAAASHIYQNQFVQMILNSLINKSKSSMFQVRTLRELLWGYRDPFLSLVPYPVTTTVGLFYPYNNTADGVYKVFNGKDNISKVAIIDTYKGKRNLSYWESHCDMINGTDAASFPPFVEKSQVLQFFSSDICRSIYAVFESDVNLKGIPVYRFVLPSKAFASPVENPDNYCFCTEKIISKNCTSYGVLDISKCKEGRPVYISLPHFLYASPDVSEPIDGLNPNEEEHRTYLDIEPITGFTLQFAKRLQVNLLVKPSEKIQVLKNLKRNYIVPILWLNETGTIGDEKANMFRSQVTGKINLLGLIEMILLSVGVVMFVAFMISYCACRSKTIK
UniProt P07996, residues 19-1170: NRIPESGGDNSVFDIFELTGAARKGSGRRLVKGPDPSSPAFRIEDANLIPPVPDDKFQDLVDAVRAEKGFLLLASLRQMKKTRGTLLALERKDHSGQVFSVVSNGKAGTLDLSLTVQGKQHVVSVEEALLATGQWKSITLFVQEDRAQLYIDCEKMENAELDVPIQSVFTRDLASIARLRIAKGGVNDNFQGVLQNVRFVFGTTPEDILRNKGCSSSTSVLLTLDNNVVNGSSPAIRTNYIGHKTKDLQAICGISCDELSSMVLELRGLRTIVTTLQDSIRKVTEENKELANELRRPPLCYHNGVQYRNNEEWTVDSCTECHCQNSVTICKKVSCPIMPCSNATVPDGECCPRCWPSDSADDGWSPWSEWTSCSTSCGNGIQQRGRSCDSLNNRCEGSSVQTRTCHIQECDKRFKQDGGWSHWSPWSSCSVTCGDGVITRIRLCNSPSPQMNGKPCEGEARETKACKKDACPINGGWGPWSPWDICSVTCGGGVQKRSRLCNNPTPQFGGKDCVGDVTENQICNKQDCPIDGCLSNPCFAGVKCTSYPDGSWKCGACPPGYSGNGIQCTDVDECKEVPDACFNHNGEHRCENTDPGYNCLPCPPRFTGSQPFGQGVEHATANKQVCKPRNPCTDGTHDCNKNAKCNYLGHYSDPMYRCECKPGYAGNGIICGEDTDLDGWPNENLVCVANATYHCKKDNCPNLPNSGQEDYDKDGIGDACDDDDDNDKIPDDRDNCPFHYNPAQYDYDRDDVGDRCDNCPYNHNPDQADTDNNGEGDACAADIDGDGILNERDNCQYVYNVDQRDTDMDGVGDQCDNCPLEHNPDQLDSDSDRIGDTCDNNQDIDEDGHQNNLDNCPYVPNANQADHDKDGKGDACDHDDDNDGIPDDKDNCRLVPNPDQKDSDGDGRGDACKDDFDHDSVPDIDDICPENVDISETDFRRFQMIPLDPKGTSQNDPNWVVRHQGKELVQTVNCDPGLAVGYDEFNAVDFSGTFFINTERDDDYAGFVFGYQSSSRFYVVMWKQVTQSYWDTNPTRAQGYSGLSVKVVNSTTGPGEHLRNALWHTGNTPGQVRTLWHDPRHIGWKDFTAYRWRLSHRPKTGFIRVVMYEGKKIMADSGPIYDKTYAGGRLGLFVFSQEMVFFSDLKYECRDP

Target: CD36 (human (endogenous in IHH)) (UniProt P16671)
Assay: co-IP; IHH hepatocytes treated with recombinant TSP1 in serum-free DMEM for 24 h, then lysed; immunoprecipitation with anti-CD36 antibody (control: IgG), overnight at 4 °C; bound proteins analysed by Western blotting; only the binder purified

binding: binds
Substance: thrombospondin 1 (TSP1), recombinant (from UniProt P07996 19-1170) (ligand)
